# Reference: PubChem BioAssay AID588590 (National Center for Advancing Translational Sciences (NCATS), 2011)
# The chains behind the UniProt entries cited, without tags or fusion partners. Where a name states a change or a piece, a line headed by the entry shows the natural chain unless it says otherwise.
# UniProt Q9UNA4: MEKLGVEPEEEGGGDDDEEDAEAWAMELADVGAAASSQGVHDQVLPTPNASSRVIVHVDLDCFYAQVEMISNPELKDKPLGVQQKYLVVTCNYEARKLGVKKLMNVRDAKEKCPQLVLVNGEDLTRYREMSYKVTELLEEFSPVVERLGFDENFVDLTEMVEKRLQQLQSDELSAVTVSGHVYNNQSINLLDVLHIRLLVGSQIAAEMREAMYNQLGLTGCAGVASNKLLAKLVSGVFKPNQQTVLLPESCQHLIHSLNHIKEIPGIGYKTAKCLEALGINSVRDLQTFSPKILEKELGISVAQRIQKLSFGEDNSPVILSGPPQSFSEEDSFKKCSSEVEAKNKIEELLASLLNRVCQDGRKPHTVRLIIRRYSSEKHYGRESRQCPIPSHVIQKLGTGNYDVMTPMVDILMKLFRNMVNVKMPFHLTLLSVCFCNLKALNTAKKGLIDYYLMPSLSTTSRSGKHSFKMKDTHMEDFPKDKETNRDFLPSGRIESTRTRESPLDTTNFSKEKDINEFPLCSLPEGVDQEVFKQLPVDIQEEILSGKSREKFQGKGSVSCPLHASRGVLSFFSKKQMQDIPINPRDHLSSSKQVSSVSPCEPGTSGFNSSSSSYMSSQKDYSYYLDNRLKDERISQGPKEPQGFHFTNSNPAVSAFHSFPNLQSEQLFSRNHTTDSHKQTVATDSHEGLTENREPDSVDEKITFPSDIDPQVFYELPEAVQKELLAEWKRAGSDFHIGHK
# Where “and” joins values, the source holds several entries; their conditions need not be identical. Identical values can stand only once. The whole screen tested about 390,000 compounds, of which about 4,000 (1%) were called active. Inconclusive means that the source gave no clear call. Such entries were picked first, then a sample of the others. Calls follow the shape of the dose curve; as a rule, active = well fitted inhibition curve with a large enough effect; inconclusive = small, poorly fitted or top-dose-only effect, or another doubt; inactive = no such curve, though single readings can be large or run the other way. Potencies of inconclusive entries are doubtful fits and often do not repeat.
# Biological target: DNA polymerase iota (Homo sapiens) (UniProt Q9UNA4)
# Assay: qHTS for Inhibitors of Polymerase Iota
# Settings: Pol iota fluorescent replication assay, 10 min; series mostly up to 115 µM
# Summary of the method: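 Pol iota at 10 nM preincubated 15 min with compounds at room temperature; reaction started with fluorescent substrate, 50 nM final. Fluorescence read kinetically at 0 and 10 min; buffer-only wells as negative control.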
# Potency is read from the fitted curve at half-maximal effect.
row,SMILES,Potency
1,CCN=c1scc(C)n1/N=C/c1ccc(O)c(O)c1O,active: 8.91 µM
2,N#C/C(=C(O)\C=C\c1ccccc1)c1nc2ccccc2[nH]1,"inconclusive: 70.8 µM [inhibitor, single point]"
3,O=C1c2cccc3c(O)ccc(c23)C(=O)N1Cc1ccccc1,"inconclusive: 12.6 µM [inhibitor, partial curve, poor fit]"
4,Cc1ccc(C(=O)Nc2ccc(C(=O)OCc3cc(=O)n4ccsc4n3)cc2)cc1,"inconclusive: 89.1 µM [inhibitor, single point]"
5,CCCCOc1ccc(C2OC34CCCCC3C(C#N)(C#N)C2(C#N)C(=N)O4)cc1 (stereo not given),active: 15.8 µM
6,CCCCSCCCNC(=O)CN1C(=O)COc2ccc(S(=O)(=O)N3CCC(C)CC3)cc21,inactive
7,O=C(CN1CCN(S(=O)(=O)c2ccccc2)CC1)NC(=O)NCc1ccco1,"inconclusive: 50.1 µM [inhibitor, partial curve]"
8,CCOC(=O)c1[nH]c(C)c(C(=O)OCc2c(C)noc2C)c1C,"inconclusive: 0.631 µM [inhibitor, full curve, poor fit]"
9,O=c1cc(O)c(-c2cccc(Cl)c2)c(Cl)[nH]1,"inconclusive: 39.8 µM [inhibitor, single point]"
10,COc1ccc(OC)c(C2C(C(C)=O)=C(O)C(=O)N2c2ccc(F)cc2)c1 (stereo not given),"inconclusive: 31.6 µM [inhibitor, partial curve, poor fit]"
11,Cc1ccnc(N2C(=O)c3cccc4c([N+](=O)[O-])ccc(c34)C2=O)c1,"inconclusive: 25.1 µM [inhibitor, single point]"
12,O=C(CNC(=O)c1ccc(Cl)cc1)OCc1cc(=O)n2ccsc2n1,inactive
13,CCN(CC)S(=O)(=O)c1ccc2c(c1)N(CC(=O)N(C)Cc1ccccc1)C(=O)CO2,inactive
14,COc1cccc(/C=C/C(=O)c2ccc(NC3=NCCCS3)cc2)c1,"inconclusive: 25.1 µM [inhibitor, partial curve, poor fit]"
15,Cc1ccc(N=Cc2cc(Cc3ccccc3Cl)cc([N+](=O)[O-])c2O)c(O)c1,"inconclusive: 31.6 µM [inhibitor, partial curve]"
16,CCCCOc1ccc(CN(CCO)CCO)cc1[N+](=O)[O-],"inconclusive: 39.8 µM [inhibitor, partial curve, poor fit]"
17,COC(=O)c1ccc(NC(=O)Cn2nc(C(=O)Nc3ccc(C)cc3)ccc2=O)cc1,"inconclusive: 50.1 µM [inhibitor, partial curve]"
18,CCSC(=Nc1ccccc1)C1=C(O)COC1=O,"inconclusive: 39.8 µM [inhibitor, single point]"
19,Cc1ccc(NC(=O)Cn2c(CCC(=O)O)ccc2-c2ccc(Cl)cc2)cc1,inactive
20,Cc1cc(C)c2c(n1)SCCN2C(=O)Nc1ccc(C(=O)Nc2cc(Cl)ccc2C)cc1,inactive
21,O=C(Nc1ccccc1)N1CCN2C(=O)c3ccccc3C12c1ccccc1 (stereo not given),inactive
22,COc1ccc(C2Nc3ccccc3C(=O)N2Cc2ccco2)cc1 (stereo not given),inactive

row,SMILES,Potency
1,COc1cc(CNCCN2CCOCC2)ccc1OCc1ccccc1Cl,"inconclusive: 3.55 µM [inhibitor, partial curve, poor fit]"
2,CC1CCN(CC(=O)Nc2nc(-c3ccccc3)cs2)CC1,inactive
3,Cc1ccc(NC(=O)Nc2ccno2)cc1,"inconclusive: 22.4 µM [inhibitor, partial curve, poor fit]"
4,CC1CC(C)CN(CCCNC(=O)C2CCCN(c3nnc(N4CCCC4=O)s3)C2)C1 (stereo not given),"inconclusive: 0.708 µM [inhibitor, partial curve, poor fit]"
5,O=C1c2ccccc2C(=O)N1c1ccc(O)cc1,"inconclusive: 89.1 µM [inhibitor, partial curve, poor fit]"
6,COc1cc(NS(=O)(=O)c2ccc(N/C=C(\C=O)c3nc4cc(Cl)ccc4o3)cc2)nc(OC)n1,"inconclusive: 31.6 µM [inhibitor, single point]"
7,O=C(NC1CCCCC1)c1c[nH]c2ccc(S(=O)(=O)Nc3ccccc3F)cc2c1=O,"inconclusive: 89.1 µM [inhibitor, single point]"
8,CCOC(=O)c1ccc(NC(=O)c2c(NCc3sccc3C)sc3c2CCCCC3)cc1,"inconclusive: 15.8 µM [inhibitor, full curve, poor fit]"
9,Cc1ccc(NS(=O)(=O)c2cc([N+](=O)[O-])ccc2NNC(=S)Nc2cccc(Cl)c2)c(C)c1,inactive
10,FC(F)(F)c1cnc2c(c1)Nc1ccccc1S2,inactive
11,O=S(=O)([O-])CCC[n+]1c(SCCCS(=O)(=O)O)sc2ccc(Cl)cc21,"inconclusive: 28.2 µM [inhibitor, partial curve, poor fit]"
12,Cn1cc(C(=O)NCc2ccc(Cl)cc2)c(=O)c2cc(S(=O)(=O)N3CCCCCC3)ccc21,inactive
13,CCOc1cccc2sc(=NC(=O)c3ccco3)n(CC(=O)OC)c12,"inconclusive: 44.7 µM [inhibitor, partial curve, poor fit]"
14,NC(=O)Cn1c(=O)n(Cc2ccco2)c(=O)c2c3c(sc21)CCCCC3,"inconclusive: 14.1 µM [inhibitor, full curve, poor fit]"
15,COc1ccc(/C=N/Nc2nc3ccccc3c(=O)n2-c2ccccc2)cc1OC,"inconclusive: 50.1 µM [inhibitor, partial curve]"
16,O=C(CN1C(=O)C2CCCCC2C1=O)Nc1nc(-c2ccccn2)cs1 (stereo not given),inactive
17,O=C(NC(=S)Nc1nc2c(s1)CCCC2)c1ccccc1,inactive
18,Cc1nnc(SCCCOc2ccccc2)nc1C,"inconclusive: 20 µM [inhibitor, full curve]"
19,Cc1cccc(OCC(=O)Nc2ccc(-c3nc4cc(C)ccc4o3)c(O)c2)c1,"inconclusive: 89.1 µM [inhibitor, single point]"
20,O=C(CCCCCCCC(=O)NNC(=O)Nc1ccccc1)NNC(=O)Nc1ccccc1,"inconclusive: 22.4 µM [inhibitor, partial curve, poor fit]"
21,COc1cc(Cc2cnc(N)nc2N)cc(OC)c1OC,"inconclusive: 89.1 µM [inhibitor, partial curve, poor fit]"
22,NC(=O)C(=O)O,inactive

row,SMILES,Potency
1,COc1cc(/C=C/c2ccc3cccc([N+](=O)[O-])c3n2)ccc1OCC#N,"inconclusive: 14.1 µM [inhibitor, partial curve, poor fit]"
2,COc1ccc(C2CC(c3ccccc3)Oc3cc(OC)ccc32)cc1 (stereo not given),"inactive and inconclusive: 20 µM [inhibitor, full curve, poor fit]"
3,CCOC(=O)c1csc(NC(=O)c2ccc(C#N)cc2)n1,"inconclusive: 5.62 µM [inhibitor, full curve, poor fit]"
4,Cc1cc(C)c(NC2=CC(=O)CC(C)(C)C2)c(C#N)c1,"inconclusive: 25.1 µM [inhibitor, full curve, poor fit]"
5,Cc1ccc(S(=O)(=O)Nc2nc3ccccc3nc2N2CCc3ccccc3C2)cc1,"inconclusive: 11.2 µM [inhibitor, full curve, poor fit]"
6,CC1CCN(C(=O)/C(=C/c2ccccc2Cl)c2ccccc2)CC1,"inconclusive: 11.2 µM [inhibitor, single point]"
7,O=S(=O)(N/N=C\c1cn(-c2ccccc2)nc1-c1ccccc1)c1ccccc1,"inconclusive: 28.2 µM [inhibitor, single point]"
8,CCOc1ccc(C(=O)NCC(=O)N2CCN(c3ccccc3O)CC2)cc1,inactive
9,Cc1cccc(N2CCN(c3nc(C)cc(C)c3C#N)CC2C)c1 (stereo not given),"inconclusive: 5.62 µM [inhibitor, full curve, poor fit]"
10,CCCCCCSc1ccc(-c2nc3cnccn3c2NCCCC)cc1,"inconclusive: 12.6 µM [inhibitor, partial curve, poor fit]"
11,COc1ccccc1NC(=S)N(Cc1cccs1)C1CCCC1,"inconclusive: 89.1 µM [inhibitor, partial curve, poor fit]"
12,Cc1nc2ccccc2c(=O)n1/N=C/c1ccc(O)c(O)c1O,"inconclusive: 1 µM [inhibitor, full curve, poor fit]"
13,Cc1cnc(C(=O)OCC(=O)c2csc(N3CCCCC3)n2)cn1,"inconclusive: 39.8 µM [inhibitor, partial curve]"
14,COc1ccc(CC(=O)Nc2c(C(=O)Nc3ccc(F)cc3)oc3ccccc23)cc1OC,"inconclusive: 89.1 µM [inhibitor, single point]"
15,COc1ccc(/C=N/NC(=O)c2nc(-c3ccccc3)cc(-c3ccccc3)n2)cc1OC,"inconclusive: 11.2 µM [inhibitor, partial curve]"
16,Cn1c(=O)cc(C(=O)N/N=C/c2ccc(Cl)cc2)[nH]c1=O,"inconclusive: 3.16 µM [inhibitor, partial curve, poor fit]"
17,CC1(C)CC(=O)C(=Cc2cn(CCC#N)nc2-c2ccc(F)cc2)C(=O)C1,"inconclusive: 31.6 µM [inhibitor, partial curve, poor fit]"
18,CC(=O)Nc1ccc(NS(=O)(=O)c2ccc(Cl)c(C(=O)O)c2)cc1,inactive
19,Cc1cc(-c2nn(C)c(=O)c3ccccc23)cc(C)c1O,"inconclusive: 79.4 µM [inhibitor, single point]"
20,CCc1ccc(N2C(=O)Cc3c2nc(N)c(C#N)c3N)cc1,"inconclusive: 25.1 µM [inhibitor, single point]"
21,C=CCOc1ccc(/C=C\c2nc(O)c([N+](=O)[O-])c(=O)[nH]2)cc1OCC,"inconclusive: 28.2 µM [inhibitor, partial curve, poor fit]"
